Assay results from PubChem BioAssay AID2685 (National Center for Advancing Translational Sciences (NCATS), 2010).
The other results are listed elsewhere or left out. Shown are side measurements of this screen, not its main read-out; they come without a call. The list favours compounds with an active or inconclusive main result. Words in brackets tell the shape of the fitted curve; partial curves, single points and poor fits give uncertain potencies.

Experiment: qHTS Assay for Lipid Storage Modulators in Drosophila S3 Cells;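 for cell number change: cells counted by Cell Tracker Red CMTPX staining in the red channel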
Settings: BODIPY lipid droplet fluorescence, 18-24 h; for cell number change: measured here: cell count max response, cells fed with added oleic acid
Method in brief: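 Drosophila S3 cells loaded with oleic acid (400 uM, as added) and compounds at several concentrations; lipid droplets imaged by 488-nm laser-scanning cytometry, 500–530 nm intensity and object ratio to cell channel. Percent activity normalized to 20 uM Triacsin C.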

[1] = measured here: lipid fluorescence (Fed channel) AC50, cells fed with added oleic acid
[2] = measured here: cell number channel AC50, cells fed with added oleic acid

Row | SMILES | cell number change | AC50 [1] | AC50 [2]
1 | COc1ccc(C(=O)Nc2ccc(S(=O)(=O)NC(C)(C)C)cc2)cc1[N+](=O)[O-] | 7.01% | 23.1 µM [falling, single point] | –
2 | COc1ccccc1CNC(=O)c1nccnc1CO | 21.6% | 6.51 µM [rising, single point] | –
3 | Cc1cc(=O)[nH]c(SCCOc2ccc3c(c2)CCC3)n1 | 0.473% | 6.51 µM [falling, partial curve, poor fit] | –
4 | CCOCC(=O)Nc1nnc(Cc2ccc(OC)c(OC)c2)s1 | -5.64% | – | –
5 | Cn1c(=O)c2c(nc(NCCO)n2CCc2ccccc2)n(C)c1=O | -47.8% | 11.6 µM [falling, partial curve] | 29.1 µM [falling, single point]
6 | COc1ccc(NC2c3ccccc3C(=O)N2Cc2ccc3c(c2)OCO3)cc1 (centres undefined) | 11.5% | 0.517 µM [rising, full curve, poor fit] | –
7 | CC1(c2ccc(Cl)cc2)NC(=O)N(CC(=O)c2ccc3c(c2)OCO3)C1=O (centres undefined) | -41.7% | 3.26 µM [falling, partial curve] | 2.91 µM [falling, partial curve]
8 | Cc1ccc(S(=O)(=O)c2cnc(-c3ccccc3)nc2N2CCCCC2)cc1 | -20% | 2.31 µM [rising, partial curve] | 6.51 µM [falling, single point]
9 | CC(C)c1c(O)nc(SCC(=O)N2CCOCC2)[nH]c1=O | -116% | 0.326 µM [falling, full curve] | 10.3 µM [falling, partial curve, poor fit]
10 | O=C(c1ccccc1)N1CCN(c2ccc(NCc3ccc4c(c3)OCO4)cc2)CC1 | – | 6.51 µM [rising, single point] | 2.31 µM [rising, partial curve, poor fit]
11 | O=S(=O)(NCC1CCCO1)c1ccccc1F (centres undefined) | 20.7% | 6.51 µM [rising, single point] | –
12 | O=C(/C=C/c1ccc(F)cc1)N1CCCc2ccccc21 | -14.6% | 29.1 µM [falling, single point] | –
13 | COc1ccc(C(O)P(=O)(OC2CCCCC2)c2ccc(N(C)C)cc2)cc1OC (centres undefined) | -1.35% | 0.0517 µM [rising, full curve] | –
14 | O=C(NCC(=O)N(c1ccc(F)cc1)C(C(=O)NCC1CCCO1)c1ccccc1)c1ccco1 (centres undefined) | 0.639% | 29.1 µM [rising, single point] | –
15 | Clc1ccc(CNC23CN4CN(CN(C4)C2)C3)c(Cl)c1 | -44.9% | 1.3 µM [falling, full curve] | 4.11 µM [falling, partial curve]
16 | CSc1ncc(Cl)c(C(=O)Nc2ccc(NC(C)=O)cc2)n1 | -10.6% | – | –
17 | CCOc1ccc(N2CC(NC(=O)c3cccc4ccccc34)CC2=O)cc1 (centres undefined) | 12.9% | 7.31 µM [rising, single point] | –
18 | CS(=O)(=O)Nc1ccccc1C(=O)N1CCOCC1 | -34% | 1.46 µM [falling, full curve] | 0.184 µM [falling, full curve]
19 | N#Cc1ccc(COC(=O)c2cccnc2Cl)cc1 | -21.8% | – | –
20 | COc1ccc(CCNC(=O)CSc2nc(O)cc(=O)[nH]2)cc1OC | -11.9% | 0.82 µM [falling, full curve, poor fit] | –
21 | O=C(Nc1ccc(F)cc1)Nc1ccc(N2CCCC2)c(S(=O)(=O)Nc2ccccc2Cl)c1 | -82.4% | 4.11 µM [falling, full curve, poor fit] | 29.1 µM [falling, single point]
22 | COc1ccccc1Nc1nnc(SCC(=O)Nc2cc(C)on2)s1 | 13.6% | 20.6 µM [falling, partial curve, poor fit] | –
23 | Cc1ccc2c(c1)N(CC(=O)NCc1ccco1)C(=O)C(C(C)C)O2 (centres undefined) | -18.8% | 10.3 µM [falling, partial curve, poor fit] | –
24 | COc1ccccc1N(C)S(=O)(=O)c1ccc(C(=O)OCC(=O)c2c[nH]c3ccccc23)cc1 | -4.74% | 1.84 µM [rising, partial curve] | 0.731 µM [rising, single point]
25 | COc1ccc(-c2ccc(-c3noc(-c4ccco4)n3)c(OC)n2)cc1 | -48.3% | 29.1 µM [falling, single point] | 29.1 µM [falling, single point]
26 | C=CCOC(=O)/C(=C\c1ccccc1)NC(=O)c1ccc(C)cc1 | 40.8% | – | –
27 | Cc1cc(=O)oc2cc(OCC(=O)Nc3nccs3)ccc12 | 18.3% | – | –
28 | CCS(=O)(=O)N1CCN(CC(=O)NC2CCCCC2)CC1 | -9.26% | 0.517 µM [falling, full curve, poor fit] | –

Reprinted at random: 3 records from the list.
Row | SMILES | cell number change | AC50 [1] | AC50 [2]
26 | C=CCOC(=O)/C(=C\c1ccccc1)NC(=O)c1ccc(C)cc1 | 40.8% | – | –
27 | Cc1cc(=O)oc2cc(OCC(=O)Nc3nccs3)ccc12 | 18.3% | – | –
20 | COc1ccc(CCNC(=O)CSc2nc(O)cc(=O)[nH]2)cc1OC | -11.9% | 0.82 µM [falling, full curve, poor fit] | –

Remaining list, next part:

Row | SMILES | cell number change | AC50 [1] | AC50 [2]
29 | COc1cc(CNn2c(C)n[nH]c2=S)cc(Br)c1OCc1ccc(F)cc1 | -30.8% | 1.3 µM [rising, partial curve, poor fit] | 16.4 µM [falling, single point]
30 | Cc1ccc(C(=O)/C=C/C(=O)c2ccc(C)cc2)cc1 | -22.2% | 29.1 µM [falling, single point] | –
31 | O=C(Nc1nccs1)c1ccc2ccccc2n1 | 43.4% | – | 29.1 µM [rising, single point]
32 | COc1ccc(NC(=S)NC(=O)C2CCCCC2)cc1 | 34.1% | 29.1 µM [rising, single point] | 29.1 µM [rising, single point]
33 | COCCNC(=O)Cn1cnc2sc(C)c(S(=O)(=O)N3CCC(C)CC3)c2c1=O | -1.7% | 0.517 µM [falling, full curve, poor fit] | –
34 | CC(C)CN(CC(C)C)S(=O)(=O)N1CCC(C(=O)N2CCc3ccccc3C2)CC1 | -21.9% | 0.651 µM [falling, full curve, poor fit] | 0.517 µM [falling, full curve, poor fit]
35 | Nc1nnc(CC(=O)N/N=C/c2cc([N+](=O)[O-])cc(Br)c2O)s1 | -3.68% | 29.1 µM [falling, single point] | –
36 | Cc1ccc(-c2cc3ccccc3nc2N2CCOCC2)cc1 | 8.33% | 0.116 µM [falling, partial curve, poor fit] | –
37 | COc1ccc(CNC(=O)CN2C(=O)NC(Cc3ccccc3)(c3ccccc3)C2=O)cc1OC (centres undefined) | -20.1% | 6.51 µM [falling, partial curve] | –
38 | Cc1ccc2nsnc2c1NC(=O)COc1ccccc1F | 130% | – | 0.58 µM [rising, single point]
39 | COc1ccc(OC)c(NC(=O)CCN2CCCC(C)C2)c1 (centres undefined) | -25.7% | 0.116 µM [rising, full curve, poor fit] | 2.06 µM [falling, single point]
40 | O=C(CCCn1c(=O)c2ccccc2n(Cc2cccc(F)c2)c1=O)NC1CCN(Cc2ccccc2)CC1 | -23.2% | 29.1 µM [falling, single point] | –
41 | N#Cc1ccc(CN2CCN(C(=O)c3cc(Cl)c4c(c3)OCCO4)CC2)cc1 | -0.908% | 0.259 µM [rising, full curve] | –
42 | COc1ccccc1CCNC(=O)C(=O)NCC1OCCN1S(=O)(=O)c1ccc([N+](=O)[O-])cc1 (centres undefined) | 5.77% | 1.84 µM [rising, full curve] | 2.31 µM [rising, single point]
43 | CCOc1ccc(S(=O)(=O)Nc2cccc(C(=O)NCC3CCCO3)c2)cc1 (centres undefined) | -36.4% | 20.6 µM [falling, single point] | 20.6 µM [falling, single point]
44 | CCCCc1n[nH]c2c1/C(=N/O)CC(c1ccccc1)C2 (centres undefined) | -18.7% | 29.1 µM [falling, single point] | –
45 | Cc1ccc(NC(=O)CCS(=O)(=O)c2ccccc2)cc1S(=O)(=O)N1CCOCC1 | 32.1% | – | 9.2 µM [rising, single point]
46 | COc1ccc(C(=O)N=C2SC3CS(=O)(=O)CC3N2c2ccc(N(C)C)cc2)cc1OC (centres undefined) | 3.4% | 29.1 µM [rising, partial curve, poor fit] | –
47 | CCSc1ccccc1C(=O)N1CCCC1 | -46% | – | 0.231 µM [falling, full curve]
48 | Cc1cc(C)c2sc(N(CCCN(C)C)C(=O)c3ccc(Br)s3)nc2c1 | 11.4% | – | –
49 | Cc1cccc(OCCCC(=O)Nc2nc3ccccc3[nH]2)c1 | 27.4% | 6.51 µM [rising, partial curve, poor fit] | 2.59 µM [rising, single point]
50 | O=C1Nc2ccccc2C1=Nc1ccc(S(=O)(=O)Nc2nccs2)cc1 | 172% | – | 8.2 µM [rising, partial curve]
51 | COc1ccc(OC(=O)c2cccc(S(=O)(=O)N3CC(C)OC(C)C3)c2)cc1 (centres undefined) | -38.7% | – | 8.2 µM [falling, partial curve]
52 | O=C(NCC(=O)N(c1cccc(F)c1)C(C(=O)NC1CCCC1)c1ccco1)c1ccco1 (centres undefined) | – | – | 4.61 µM [rising, single point]
53 | CCOC(=O)O[C@]1(C(=O)COC(=O)CC)CC[C@H]2[C@@H]3CCC4=CC(=O)C=C[C@]4(C)[C@H]3[C@@H](O)C[C@@]21C | 11.3% | 0.517 µM [rising, full curve, poor fit] | –
54 | COc1cccc(CNC(=O)COC(=O)CN2C(=O)NC3(CCCCC3C)C2=O)c1 (centres undefined) | 9.16% | 3.66 µM [rising, full curve] | –
55 | CN(C)C=NC(=O)c1cn(-c2ccc(F)cc2)c(=O)c2ccccc12 | -9.23% | – | 6.51 µM [falling, single point]
